Each structure is given as a SMILES string. Structures can show the parent of a compound that is named as a salt. The list shows a part of the results. Most values lie at the level of the controls, where differences are scatter.

Holding throughout (details): 5 µM; treatment: days 7-14 after plating, readout day 21
Assay [1] concerns hPSC-derived cortical neurons (WA09). In words: nucleus area z-score vs screen plate; higher = larger nuclei (more mature).
Assay [2] shares this test system. The experiment in a line: total neurite length per nucleus (MAP2) z-score; higher = more neurite growth.
Assay [3] has the same test system. In words: nucleus roundness z-score vs screen plate; higher = rounder nuclei (more mature).
Assay [4] has the same test system. The experiment in a line: KCl-induced FOS+/EGR-1+ double-positive nuclei fraction z-score (KCl minus unstimulated); higher = stronger activity-induced IEG response.

For the compound `CN(C)C(=N)NC(=N)N` [Metformin HCl], in assay [1], the nucleus area z-score was 0.2. Further, the “total neurite length per nucleus (z-score)” value in assay [2] came out at 0.292. In assay [3], the nucleus roundness z-score is 0.355. In addition, in assay [4], the “KCl-induced FOS+/EGR-1+ double-positive nuclei fraction z-score” value is -0.145.
The corresponding values for `Oc1ncnc2[nH]ncc12` [Allopurinol] are -0.0381, 0.264, -0.154 and 1.04.
The corresponding values for `Cc1cc(C(C)(C)C)cc(C)c1CC1=NCCN1` [Xylometazoline HCl] are 0.532, -0.289, -0.181 and 0.495.
Taken in the same sequence, the figures for `CCCC(=O)OCOC(=O)C1=C(C)NC(C)=C(C(=O)OC)C1c1cccc(Cl)c1Cl` (stereo unspecified) [Clevidipine Butyrate] were 0.936, 1.83, -0.591 and -0.575.
On to `COc1cc(NC(C)CCCN)c2ncccc2c1` (stereo unspecified) [Primaquine Diphosphate], for which the nucleus area z-score in assay [1] was -1.01. Besides, the “total neurite length per nucleus (z-score)” value in assay [2] is -0.34. In assay [3], this compound registered a nucleus roundness z-score of 0.678. Moreover, the “KCl-induced FOS+/EGR-1+ double-positive nuclei fraction z-score” value in assay [4] turned out to be 0.558.
Taken in the same sequence, the figures for `COc1cc(/C=C/C(=O)CC(=O)/C=C/c2ccc(O)c(OC)c2)ccc1O` [Curcumin] were -0.307, 0.249, 0.46 and 0.71.
The corresponding values for `O=C(O)CCC(=O)Nc1ccc(Br)cn1` [Bikinin] are 0.797, 0.144, 0.065 and 1.26.
Taken in the same sequence, the figures for `CCCCCCCCCC(=O)N[C@@H](Cc1c[nH]c2ccccc12)C(=O)N[C@H](CC(N)=O)C(=O)N[C@@H](CC(=O)O)C(=O)N[C@@H]1C(=O)NCC(=O)N[C@@H](CCCN)C(=O)N[C@@H](CC(=O)O)C(=O)N[C@H](C)C(=O)N[C@@H](CC(=O)O)C(=O)NCC(=O)N[C@H](CO)C(=O)N[C@@H]([C@H](C)CC(=O)O)C(=O)N[C@@H](CC(=O)c2ccccc2N)C(=O)O[C@@H]1C` [Daptomycin] were 0.202, 0.595, 0.411 and -0.371.
With `Nc1cccc(S(=O)(=O)N2CCCN(S(=O)(=O)c3ccc4c(c3)OCCO4)CC2)c1`, the nucleus area z-score in assay [1] was -2.22. Moreover, the “total neurite length per nucleus (z-score)” value in assay [2] was -2.16. For the same compound, the nucleus roundness z-score in assay [3] is -2.21. For the same compound, the “KCl-induced FOS+/EGR-1+ double-positive nuclei fraction z-score” value in assay [4] was 1.06.
